Results are given in words; binding and its absence hold for the method and conditions named. Some binding calls cover weakened binding; strength is not graded here.
Columns and labels:
[1] = biological target: soluble SorCS2 (extracellular domain of SorCS2), immobilized on the Biacore chip (Homo sapiens in the sequence list; not stated for the assay) (UniProt Q96PQ0); assay: SPR (Biacore), CM5 chip coated with SorCS2
[2] = biological target: soluble SorCS2 (extracellular domain of SorCS2), immobilized on the Biacore chip (Homo sapiens in the sequence list; not stated for the assay) (UniProt Q96PQ0); assay: SPR (BIAcore), as in FIG. 7
[3] = biological target: soluble SorCS2 (extracellular domain of SorCS2), immobilized on the Biacore chip (Homo sapiens in the sequence list; not stated for the assay) (UniProt Q96PQ0); assay: SPR (BIAcore), soluble SorCS2 immobilized on a CM5 chip, mature BDNF at 10 and 20 nM in solution

Amino acid sequences for entries named in this document (tags omitted). A change or cut given only in a name is not applied to a line headed by its entry.
UniProt Q96PQ0: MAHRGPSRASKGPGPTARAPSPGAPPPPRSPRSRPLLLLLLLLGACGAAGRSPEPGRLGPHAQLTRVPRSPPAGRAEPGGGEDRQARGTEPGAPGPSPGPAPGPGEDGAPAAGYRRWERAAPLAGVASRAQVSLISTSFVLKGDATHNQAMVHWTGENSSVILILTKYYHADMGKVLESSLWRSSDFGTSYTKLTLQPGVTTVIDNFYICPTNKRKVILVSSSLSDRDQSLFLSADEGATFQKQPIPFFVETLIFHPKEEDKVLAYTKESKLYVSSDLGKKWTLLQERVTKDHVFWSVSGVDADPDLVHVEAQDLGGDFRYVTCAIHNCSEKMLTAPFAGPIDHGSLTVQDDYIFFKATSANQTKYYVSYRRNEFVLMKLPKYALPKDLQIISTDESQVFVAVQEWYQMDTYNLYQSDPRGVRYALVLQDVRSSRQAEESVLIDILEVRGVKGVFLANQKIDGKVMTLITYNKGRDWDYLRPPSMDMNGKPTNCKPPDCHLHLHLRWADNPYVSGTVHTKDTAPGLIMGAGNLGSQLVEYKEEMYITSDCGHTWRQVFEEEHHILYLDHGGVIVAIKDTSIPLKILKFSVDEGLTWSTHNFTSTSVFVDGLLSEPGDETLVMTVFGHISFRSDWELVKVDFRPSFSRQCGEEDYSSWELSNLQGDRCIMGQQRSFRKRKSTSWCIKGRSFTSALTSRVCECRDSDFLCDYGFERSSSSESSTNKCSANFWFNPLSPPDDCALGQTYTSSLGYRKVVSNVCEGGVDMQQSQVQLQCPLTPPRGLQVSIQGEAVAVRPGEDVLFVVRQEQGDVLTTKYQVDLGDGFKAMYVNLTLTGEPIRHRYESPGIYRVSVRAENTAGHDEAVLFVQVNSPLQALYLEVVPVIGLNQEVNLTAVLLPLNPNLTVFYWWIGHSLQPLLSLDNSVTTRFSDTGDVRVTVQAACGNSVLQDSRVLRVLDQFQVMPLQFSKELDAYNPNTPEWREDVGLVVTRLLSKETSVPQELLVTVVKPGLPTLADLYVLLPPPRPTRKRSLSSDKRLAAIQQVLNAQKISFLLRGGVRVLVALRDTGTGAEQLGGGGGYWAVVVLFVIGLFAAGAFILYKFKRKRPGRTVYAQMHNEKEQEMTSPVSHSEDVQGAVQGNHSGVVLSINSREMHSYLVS

binding [1]: binds | binding [2]: binds | binding [3]: binds
B1: mature BDNF (ligand)
chain: HSDPARRGELSVCDSISEWVTAADKKTAVDMSGGTVTVLEKVPVSKGQLKQYFYETKCNPMGYTKEGCRGIDKRHWNSQCRTTQSYVRALTMDSKKRIGWRFIRIDTSCVCTLTIKRGR

From patent publication US20120052075A1
